Experimental data: PMC6981637, “Tetrahydroquinoline-Isoxazole/Isoxazoline Hybrid Compounds as Potential Cholinesterases Inhibitors: Synthesis, Enzyme Inhibition Assays, and Molecular Modeling Studies” (International Journal of Molecular Sciences, 2019)

Amino acid sequences for entries named in this document (tags omitted). Residues count along the entry.
UniProt O42275, 24-633 limits assumed: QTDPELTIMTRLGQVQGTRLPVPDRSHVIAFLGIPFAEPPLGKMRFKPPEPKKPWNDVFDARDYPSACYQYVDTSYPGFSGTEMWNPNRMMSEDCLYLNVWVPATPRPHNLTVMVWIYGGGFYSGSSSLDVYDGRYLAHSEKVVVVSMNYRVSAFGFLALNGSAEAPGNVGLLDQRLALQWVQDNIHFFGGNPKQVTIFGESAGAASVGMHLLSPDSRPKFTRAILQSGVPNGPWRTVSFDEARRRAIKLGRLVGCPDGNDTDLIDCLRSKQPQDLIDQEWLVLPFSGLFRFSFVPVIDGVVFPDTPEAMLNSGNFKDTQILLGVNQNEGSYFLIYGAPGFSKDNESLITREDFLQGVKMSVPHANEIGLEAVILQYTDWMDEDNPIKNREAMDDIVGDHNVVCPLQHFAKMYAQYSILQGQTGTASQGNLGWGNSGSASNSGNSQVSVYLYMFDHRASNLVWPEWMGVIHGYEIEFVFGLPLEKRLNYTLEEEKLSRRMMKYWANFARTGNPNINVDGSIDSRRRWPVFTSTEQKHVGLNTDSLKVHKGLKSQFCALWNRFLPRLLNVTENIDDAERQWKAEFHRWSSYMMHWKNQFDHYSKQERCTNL

Target: AChE (from Electrophorus electricus) (Electrophorus electricus, UniProt O42275)
Assay: AChE inhibitory activity (Ellman method)
Details: read-out: IC50 AChE

COc1ccc(C2=NOC(CN3CCC(N4CCCC4=O)c4cc(Cl)ccc43)C2)cc1 (stereo not shown) [5n, 5-[(6-chloro-4-(2′-oxopyrrolidin-1′-yl)-3,4-dihydroquinolin-1(2H)-yl)-methyl]-3-(4-methoxyphenyl)-4,5-dihydroisoxazole]
IC50: < 15.3 µM and 4.24 µM

Some entries of the source have several records that differ or are many. The other results are left out here. An entry can have further records. Values that stand side by side differ, and nothing given here explains why; some may be repeats, others may stem from another dose, organism or construct than stated.
